pIC50: −log10 of the molar value. Structures were worked out from names or drawings and are uncertain.
Biological target: recombinant autotaxin (Homo sapiens, UniProt Q13822)
Experiment: Autotaxin test (enzyme test), Amplex Red
Conditions: Autotaxin inhibition (enzyme test), substrate LPC 75 μM
Experimental: The autotaxin activity is measured indirectly using Amplex Red reagent. Amplex Red is measured here as fluorogenic indicator for the H2O2 formed. In detail, autotaxin converts the substrate lysophosphatidylcholine (LPC) into phosphocholine and lysophosphatidylic acid (LPA). After this reaction, the phosphocholine is reacted with alkaline phosphatase to give inorganic phosphate and choline. In the next step, choline is oxidised by choline oxidase to give betaine, with formation of H2O2. H2O2 reacts with Amplex Red reagent in the presence of peroxidase (horseradish peroxidase) in a 1:1 stoichiometry and forms the highly fluorescent resorufin. The fluorescence is measured in a reaction-dependent kinetic mode in order that fluorescent signals from possible other fluorescent substances which are not involved in the reaction can be corrected out.
1.5 μl of a standard solution or of the test substances (substances with the name A(n))in individual concentrations dissolved in 20 mM Hepes pH 7.2 with a maximum of 7.7% of DMSO are pre-incubated together with 10 μl (16 ng) of highly purified recombinant autotaxin in a black microtitre plate provided with 384 wells at 22° C. for 30 min. […] The activity of autotaxin is calculated indirectly via detection of the H2O2 formed. […]

Row | pIC50 (TABLE 1 (A compounds)) | pIC50 (TABLE 2 (B compounds)) | SMILES
1 | < 6.00 |  | COc1cc(OC)c(NC(=O)CN2CCc3nc4ccccc4c(C(=O)N4CCN(CCO)CC4)c3C2)cc1Cl
2 |  | 6.00 to 7.00 | COc1ccc(Cl)cc1NC(=O)CN1CCc2nc3ccccc3c(C(=O)N3CCC(N(C)C)CC3)c2C1
